Test results from patent US20070003517A1 (UNIVERSITY OF MASSACHUSETTS, published 2007).
No constants are given. Whether binding was seen depends on the method and setting. Binding seen in cells or lysates may run through a third protein. Some entries that bind do so weakly or less than the wild type. For part of these data: Where a sequence is shown, tags or fusion partners need not be part of it.

By UniProt entry, the sequences of proteins in these tests, tags left out. Where a name states a change or a piece, a line headed by the entry shows the natural chain unless it says otherwise. Chains listed by the source or under a name are the forms on record and can include a tag or linker.
Flag epitope-tagged JNK1 (cell lysate) (P45983-2, form named): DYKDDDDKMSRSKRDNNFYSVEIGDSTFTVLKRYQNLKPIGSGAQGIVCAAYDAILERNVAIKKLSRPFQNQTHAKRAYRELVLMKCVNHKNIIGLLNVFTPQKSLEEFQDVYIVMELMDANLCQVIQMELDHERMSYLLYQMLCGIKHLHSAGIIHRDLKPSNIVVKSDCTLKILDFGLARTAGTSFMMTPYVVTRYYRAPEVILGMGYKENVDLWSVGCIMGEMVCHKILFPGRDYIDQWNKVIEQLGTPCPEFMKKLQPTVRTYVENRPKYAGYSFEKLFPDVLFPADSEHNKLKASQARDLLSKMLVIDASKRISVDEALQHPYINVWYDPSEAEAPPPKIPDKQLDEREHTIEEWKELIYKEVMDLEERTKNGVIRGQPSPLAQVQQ

Tests used:
[1] = biological target: T1, Flag epitope-tagged JNK1 (cell lysate) (human, UniProt P45983-2 1-384, limits assumed); assay: GST pull-down from cell lysate, immunoblot
T1 construct: written N-terminal here

[2] = biological target: T1, Flag epitope-tagged JNK1 (cell lysate); assay: peptide competition of GST-JIP-1 (127-281) pull-down of JNK1, immunoblot
[3] = biological target: T1, Flag epitope-tagged JNK1 (cell lysate); assay: peptide competition (0, 4, 8, 16, 32, 64 µg/ml) of GST-JIP-1 (127-281) pull-down of Flag-JNK, immunoblot

Row | binding [1] | binding [2] | binding [3] | Binder
1 | binds |  |  | PKAESNQDPAPRSQGQGPGTGSGDTYRPKRPTTLNLF (peptide, not shown: a dimerising Fc or GST) [GST fusion protein containing residues 127-163 of JIP-1]
2 |  | binds | binds | SGDTYRPKRPTTLNLFPQVPRSQDTLN [synthetic peptide corresponding to JIP-1 residues 148-174]
